Results reported in paper PMC8436130.
Results are given in words; binding and its absence hold for the method and conditions named. Binding seen in cells or lysates may run through a third protein. Some entries that bind do so weakly or less than the wild type.

By UniProt entry, the sequences of proteins in these tests, tags left out. Residues count along the entry.
UniProt P02545, residues 1-646: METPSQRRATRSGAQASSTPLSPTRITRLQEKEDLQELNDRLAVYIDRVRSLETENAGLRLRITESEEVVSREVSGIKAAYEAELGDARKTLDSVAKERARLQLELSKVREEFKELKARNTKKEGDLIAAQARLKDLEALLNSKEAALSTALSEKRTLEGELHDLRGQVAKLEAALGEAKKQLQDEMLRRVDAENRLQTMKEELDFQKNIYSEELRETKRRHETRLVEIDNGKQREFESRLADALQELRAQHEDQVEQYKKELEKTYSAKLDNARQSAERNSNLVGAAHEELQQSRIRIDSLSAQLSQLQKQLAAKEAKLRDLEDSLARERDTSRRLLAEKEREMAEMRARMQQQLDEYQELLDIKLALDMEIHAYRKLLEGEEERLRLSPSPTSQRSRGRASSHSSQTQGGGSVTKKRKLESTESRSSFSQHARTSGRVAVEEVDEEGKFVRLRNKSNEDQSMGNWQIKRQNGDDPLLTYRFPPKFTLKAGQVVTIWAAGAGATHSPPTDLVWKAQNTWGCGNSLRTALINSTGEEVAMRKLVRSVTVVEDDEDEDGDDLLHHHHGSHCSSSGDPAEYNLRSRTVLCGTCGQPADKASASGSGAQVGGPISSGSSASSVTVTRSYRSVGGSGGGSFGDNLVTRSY
UniProt Q86WV6: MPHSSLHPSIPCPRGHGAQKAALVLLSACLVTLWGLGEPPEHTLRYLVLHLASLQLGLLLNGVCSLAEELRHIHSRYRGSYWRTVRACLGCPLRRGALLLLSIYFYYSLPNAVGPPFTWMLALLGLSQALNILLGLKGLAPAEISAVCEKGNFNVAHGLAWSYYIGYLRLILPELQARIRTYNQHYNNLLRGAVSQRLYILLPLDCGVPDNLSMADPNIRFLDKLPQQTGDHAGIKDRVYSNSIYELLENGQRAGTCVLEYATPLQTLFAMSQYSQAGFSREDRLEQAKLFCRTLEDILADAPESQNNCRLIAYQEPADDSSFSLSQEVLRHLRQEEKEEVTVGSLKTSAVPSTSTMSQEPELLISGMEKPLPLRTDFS

Target: Lamin A-GFP (UniProt P02545)
Test: FRET or BRET; FRET-FLIM; HEK293T cells transiently transfected with lamin A-GFP (donor) and STING-RFP (acceptor), fixed after 24 h in 3.7% formaldehyde; lamin A-GFP alone as negative and a tandem RFP-GFP construct as positive control

binding: binds
Substance: STING-RFP (from UniProt Q86WV6 1-379)
